Measured values taken from patent publication US8110573B2, “Pyrazole compounds that modulate the activity of CDK, GSK and aurora kinases” (Astex Therapeutics Limited, priority 2004, dated 2012).
Counter-ions that a name gives are not always drawn. Some entries share one result that the patent states for a list of compounds.

target: T1, Aurora A (Homo sapiens, UniProt O14965); assay: Aurora A kinase assay (DELFIA); type: biochemical; conditions: 15 μM ATP
T1 construct: purchased Upstate Discovery
T1 sequence (O14965 1-403): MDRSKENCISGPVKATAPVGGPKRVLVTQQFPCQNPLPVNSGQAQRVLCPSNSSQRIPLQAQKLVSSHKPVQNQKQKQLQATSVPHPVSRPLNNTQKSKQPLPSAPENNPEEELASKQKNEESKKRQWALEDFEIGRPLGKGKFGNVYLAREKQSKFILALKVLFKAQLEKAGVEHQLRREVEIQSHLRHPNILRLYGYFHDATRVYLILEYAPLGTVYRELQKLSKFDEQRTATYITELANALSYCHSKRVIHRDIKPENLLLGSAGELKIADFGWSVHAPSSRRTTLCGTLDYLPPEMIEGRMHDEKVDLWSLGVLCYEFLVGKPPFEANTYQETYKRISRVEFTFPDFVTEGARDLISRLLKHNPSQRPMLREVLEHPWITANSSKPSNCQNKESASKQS

Row | Compound | IC50 [µM]
1 | O=C(Nc1c[nH]nc1-c1nc2cc(CN3CCOCC3)ccc2[nH]1)C1CCOC1 (stereo not shown) [Example 9] | < 1
2 | O=C(Nc1cccc(F)c1)Nc1c[nH]nc1-c1nc2cc(CN3CCOCC3)ccc2[nH]1 [Example 50] | < 1
3 | O=C(Nc1c[nH]nc1-c1nc2cc(CN3CCOCC3)ccc2[nH]1)N1CCc2ccccc21 [Example 29] | < 1
4 | O=C(NCC1CC1)Nc1c[nH]nc1-c1nc2cc(CN3CCOCC3)ccc2[nH]1 [Example 34] | < 1
5 | C[C@@H]1CN(C(=O)Nc2c[nH]nc2-c2nc3cc(CN4CCOCC4)ccc3[nH]2)C[C@H](C)O1 [Example 25] | < 1
6 | CN(C(=O)Nc1c[nH]nc1-c1nc2cc(CN3CCOCC3)ccc2[nH]1)c1ccccc1F [Example 43] | < 1
7 | COc1cc(C(=O)Nc2c[nH]nc2-c2nc3cc(CN4CCOCC4)ccc3[nH]2)c(OC)nn1 [Example 14] | < 1
8 | O=C(NCC1CCOCC1)Nc1c[nH]nc1-c1nc2cc(CN3CCOCC3)ccc2[nH]1 [Example 26] | < 1
9 | O=C(Nc1c[nH]nc1-c1nc2cc(CN3CCOCC3)ccc2[nH]1)NN1CCOCC1 [Example 32] | < 1
10 | CN(C(=O)Nc1c[nH]nc1-c1nc2cc(CN3CCOCC3)ccc2[nH]1)c1ccc(F)cc1 [Example 37, 1-(4-fluorophenyl)-1-methyl-3-[3-(5-morpholin-4-ylmethyl-1H-benzimadazol-2-yl)-1H-pyrazol-4-yl]-urea] | < 1
11 | Cc1nc2sccn2c1C(=O)Nc1c[nH]nc1-c1nc2cc(CN3CCOCC3)ccc2[nH]1 [Example 2, 6-methyl-imadazol[2,1-b]thiazole-5-carboxylic acid[3-(5-morpholin-4-ylmethyl-1H-benzoimidazol-2-yl)-1H-pyrazol-4-yl]-amide] | < 1
12 | O=C(CC1CCOCC1)Nc1c[nH]nc1-c1nc2cc(CN3CCOCC3)ccc2[nH]1 [Example 5] | < 1
13 | COc1ccc(Cl)cc1NC(=O)Nc1c[nH]nc1-c1nc2cc(CN3CCOCC3)ccc2[nH]1 [Example 56] | < 1
14 | O=C(NCc1ccco1)Nc1c[nH]nc1-c1nc2cc(CN3CCOCC3)ccc2[nH]1 [Example 52] | < 1
15 | CN(C(=O)Nc1c[nH]nc1-c1nc2cc(CN3CCOCC3)ccc2[nH]1)c1ccc(F)cc1F [Example 42] | < 1
16 | O=C(CC1CC1)Nc1c[nH]nc1-c1nc2cc(CN3CCOCC3)ccc2[nH]1 [Example 10] | < 1
17 | CN(C)NC(=O)Nc1c[nH]nc1-c1nc2cc(CN3CCOCC3)ccc2[nH]1 [Example 31] | < 1
18 | O=C(Nc1c[nH]nc1-c1nc2cc(CN3CCOCC3)ccc2[nH]1)[C@H]1CCCO1 [Example 12] | < 1
19 | CC(=O)Nc1c[nH]nc1-c1nc2cc(CN3CCOCC3)ccc2[nH]1 [Example 7] | < 1
20 | COc1cc2nc(-c3n[nH]cc3NC(=O)C3CN(C(C)C)CCO3)[nH]c2cc1OC (racemic) [Example 16, N-[3-(5,6-dimethoxy-1H-benzimidazol-2-yl)-1H-pyrazol-4-yl]-rac-4 isopropyl-2-morpholine carboxamide] | < 1
21 | CS(=O)(=O)CCNC(=O)Nc1c[nH]nc1-c1nc2cc(CN3CCOCC3)ccc2[nH]1 [Example 33] | < 1
22 | CC(C)(NC(=O)Nc1c[nH]nc1-c1nc2cc(CN3CCOCC3)ccc2[nH]1)c1ccccc1 [Example 38] | < 1
23 | O=C(Nc1c[nH]nc1-c1nc2cc(CN3CCOCC3)ccc2[nH]1)C1CCCO1 (stereo not shown) [Example 11] | < 1
24 | CC(C)(CO)C(=O)Nc1c[nH]nc1-c1nc2cc(CN3CCOCC3)ccc2[nH]1 [Example 8] | < 1
25 | COc1cc2nc(-c3n[nH]cc3NC(=O)c3ccc(CN4CCCC4)o3)[nH]c2cc1OC [Example 19] | < 1

Row | Compound | IC50 [µM]
26 | COc1ccccc1NC(=O)Nc1c[nH]nc1-c1nc2cc(CN3CCOCC3)ccc2[nH]1 [Example 55] | < 1
27 | COc1cc2nc(-c3n[nH]cc3NC(=O)C3CNCCO3)[nH]c2cc1OC (racemic) [Example 15, N-[3-(5,6-dimethoxy-1H-benzimidazol-2-yl)-1H-pyrazol-4-yl]-rac-2-morpholine carboxamide-trifluoroacetate salt] | < 1
28 | O=C(Nc1cc(F)cc(F)c1)Nc1c[nH]nc1-c1nc2cc(CN3CCOCC3)ccc2[nH]1 [Example 53] | < 1
29 | N#CC(C(=O)Nc1c[nH]nc1-c1nc2cc(CN3CCOCC3)ccc2[nH]1)C1CC1 (stereo not shown) [Example 4, 2-Cyano-2-cyclopropyl-N-[3-(5-morpholin-4-ylmethyl-1H-benzoimidazol-2-yl)-1H-pyrazol-4-yl]-acetamide] | < 1
30 | O=C(Nc1cc(F)ccc1F)Nc1c[nH]nc1-c1nc2cc(CN3CCOCC3)ccc2[nH]1 [Example 47] | < 1
31 | COc1cc2nc(-c3n[nH]cc3NC(=O)C3CCCN(C)C3)[nH]c2cc1OC (racemic) [Example 17, N-[3-(5,6-dimethoxy-H-benzimidazol-2-yl)-1H-pyrazol-4-yl]-rac-1-methyl-piperidine 3-carboxamide] | < 1
32 | O=C(Nc1c[nH]nc1-c1nc2cc(CN3CCOCC3)ccc2[nH]1)NN1CCCC1 [Example 30] | < 1
33 | COc1ccc(Cl)cc1C(=O)Nc1c[nH]nc1-c1nc2cc(CN3CCN(C)CC3)ccc2[nH]1 [Example 22, 5-chloro-2-methoxy-N-{3-[5-(4-methyl-piperazin-1-ylmethyl)-1H-benzoimidazol-2-yl]-1H-pyrazol-4-yl}-benzamide] | < 1
34 | O=C(Nc1ccc(F)cc1F)Nc1c[nH]nc1-c1nc2cc(CN3CCOCC3)ccc2[nH]1 [Example 46] | < 1
35 | O=C(Nc1c[nH]nc1-c1nc2cc(CN3CCOCC3)ccc2[nH]1)N1Cc2ccccc2C1 [Example 28] | < 1
36 | O=C(Nc1ccc(F)cc1)Nc1c[nH]nc1-c1nc2cc(CN3CCOCC3)ccc2[nH]1 [Example 44, 1-(4-fluorophenyl)-N-[3-(5-morpholin-4-ylmethyl-1H-benzimidazol-2-yl)-1H-pyrazol-4-yl]-urea] | < 1
37 | O=C(Nc1c[nH]nc1-c1nc2cc(CN3CCOCC3)ccc2[nH]1)N1CCS(=O)(=O)CC1 [Example 40] | < 1
38 | O=C(Nc1c[nH]nc1-c1nc2cc(CN3CCOCC3)ccc2[nH]1)N1CCSCC1 [Example 36, thiomorpholine-4-carboxylic acid [3-(5-morpholin-4-ylmethyl-1H-benzoimidazol-2-yl)-1H-pyrazol-4-yl]-amide] | < 1
39 | COc1cc2nc(-c3n[nH]cc3NC(=O)c3cc(Cl)cc(N4CCN(C)CC4)c3)[nH]c2cc1OC [Example 18, 3-chloro-N-(5,6-dimethoxy-1H-benzoimidazol-2-yl)-1H-pyrazol-4-yl-5-(4-methyl-piperazin-1-yl)-benzamide] | < 1
40 | O=C(NCc1c(F)cccc1F)Nc1c[nH]nc1-c1nc2cc(CN3CCOCC3)ccc2[nH]1 [Example 23] | < 1
41 | O=C(Nc1c[nH]nc1-c1nc2cc(CN3CCOCC3)ccc2[nH]1)[C@@H]1CCCO1 [Example 13] | < 1
42 | CC(C)(C)NC(=O)Nc1c[nH]nc1-c1nc2cc(CN3CCOCC3)ccc2[nH]1 [Example 45] | < 1
43 | N#CCC(=O)Nc1c[nH]nc1-c1nc2cc(CN3CCOCC3)ccc2[nH]1 [Example 3, 2-cyano-N-[3-(5-morpholin-4-ylmethyl-1H-benzoimidaxol-2-yl)-1H-pyrazol-4-yl]-acetamide] | < 1
44 | COc1cc2nc(-c3n[nH]cc3NC(=O)c3ccoc3CN3CCOCC3)[nH]c2cc1OC [Example 21] | < 1
45 | COc1ccc(C#N)cc1C(=O)Nc1c[nH]nc1-c1nc2cc(CN3CCOCC3)ccc2[nH]1 [Example 1, 5-cyano-2-methoxy-N-[3-(5-morpholin-4-ylmethyl-1H-benzoimidazol-2-yl)-1H-pyrazol-4-yl]-benzamide] | < 1
46 | COc1cc2nc(-c3n[nH]cc3NC(=O)c3ccoc3CN(C)C)[nH]c2cc1OC [Example 20] | < 1
47 | O=C(Nc1c[nH]nc1-c1nc2cc(CN3CCOCC3)ccc2[nH]1)Nc1c(F)cc(F)cc1F [Example 54] | < 1
48 | Cn1cccc(NC(=O)Nc2c[nH]nc2-c2nc3cc(CN4CCOCC4)ccc3[nH]2)c1=O [Example 39] | < 1
49 | CN(C(=O)Nc1c[nH]nc1-c1nc2cc(CN3CCOCC3)ccc2[nH]1)c1cccc(F)c1 [Example 41] | < 1
